Test results published in PubChem BioAssay AID493014 (National Center for Advancing Translational Sciences (NCATS), 2011).
Screen size: about 340,000 compounds; about 170 (0.05%) were called active. The inconclusive results got no clear call from the source; some entries with a clear call stand among them for comparison. Calls come from the whole dose curve; as a rule, active = well fitted inhibition curve with a large enough effect in the signal ratio, with a control signal flat (not every such curve was filed as active); inconclusive = small, poorly fitted or top-dose-only effect, or effect the other way, or a change in a side signal; inactive = flat fitted curve, though single readings scatter; the % refers to the signal ratio. A potency beside an inconclusive call is a rough fit, not a confirmed value.

Assay: qHTS Assay to Find Inhibitors of Chronic Active B-Cell Receptor Signaling;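 for activity change, negative = inhibition: plate controls were basal doxycycline-induced cells for no effect and cells given 10 µM MG132 for full effect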
Conditions: ABC-DLBCL IkBa-CBG/CBR reporter, luminescence ratio (green luciferase fused to IkBa over red control in TMD8 lymphoma cells), 4 h
In short: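 TMD8 human ABC-DLBCL cells with doxycycline-inducible IκBα–green luciferase fusion and unfused red luciferase, in 0.5% FBS medium; compounds up to 46 uM, 4 h at 37C. Green/red luminescence ratio, filter-overlap corrected, fitted to concentration-response curves.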

[1] = activity change, negative = inhibition: at 46.1 µM (top of the series)
Potency is the fitted concentration of half-maximal effect.

CCn1ccnc1CNC(=O)c1ccc2oc(C(C)C)nc2c1
activity change, negative = inhibition [1]: inactive

CCCCCCc1nc(C(N)=O)c2[nH]c(=O)n(-c3ccccc3F)c2n1
activity change, negative = inhibition [1]: inconclusive: 0.259%

CCOc1ccc(C(=O)Nc2ccc3c(c2)OCCO3)cc1OC
activity change, negative = inhibition [1]: inactive

COc1ccc(-n2nccc2-c2nn(-c3cccc(OC)c3)c(=O)n(C)c2=O)cc1
activity change, negative = inhibition [1]: inconclusive: 18%

CCN1C(=NCCc2cccs2)N[C@@H](c2cccs2)C(C(=O)OC)=C1C
activity change, negative = inhibition [1]: inconclusive: 5.22%

CCCN(CC(=O)Nc1ccccc1C)C(=O)Cc1c(C)nc2ccccc2c1C
activity change, negative = inhibition [1]: inactive

O=C(/C=C/c1ccc([N+](=O)[O-])cc1)Nc1cccc(S(=O)(=O)NC2=NCCCCC2)c1
Potency [1]: inconclusive: 23.1 µM [falling, partial curve, poor fit]

Cc1cccc(Nc2nc(-c3ccc(F)cc3)cs2)n1
activity change, negative = inhibition [1]: inconclusive: 369%

CCOc1ccc(C2=Nc3ccccc3C(c3ccc(N4CCOCC4)cc3)=NN2)cc1
Potency [1]: inconclusive: 35.5 µM [falling, single point]

Oc1ccc(CN2CCCCC2)c2cccnc12
activity change, negative = inhibition [1]: inconclusive: 18%

COc1ccccc1CNc1cc(CSc2ccc(Cl)cc2)nc(C)n1
Potency [1]: inconclusive: 23.1 µM [falling, single point]

N#CC(=C1CCCC1)c1nc(-c2ccccc2)cs1
activity change, negative = inhibition [1]: inconclusive: 12.9%

O=c1[nH]nc(SCCS(=O)(=O)c2ccc(F)cc2)n1-c1ccc2c(c1)OCCO2
Potency [1]: inconclusive: 14.1 µM [falling, partial curve]

CCOc1ccc(OCc2ccc(C(=O)OCc3ccccn3)o2)cc1
Potency [1]: inconclusive: 35.5 µM [rising, single point]

COc1ccc(CCC(=O)N2CCN(S(=O)(=O)c3cccs3)CC2)cc1
activity change, negative = inhibition [1]: inactive

Cc1cc(NS(=O)(=O)c2ccc(NC(=O)/C=C/c3ccco3)cc2)nc(C)n1
activity change, negative = inhibition [1]: inconclusive: 4.37%

COc1ccc(CCNC(=O)c2ccccc2NC(=O)CN2CCN(c3ccccc3O)CC2)cc1
Potency [1]: inconclusive: 20.6 µM [falling, partial curve]

Cc1ccc2nc(-c3ccc(N)cc3)sc2c1
Potency [1]: inconclusive: 22.4 µM [falling, single point]

Clc1cccc2c3c([nH]c12)CCNC3
activity change, negative = inhibition [1]: inactive

O=[N+]([O-])c1cc([N+](=O)[O-])c2cccnc2c1Oc1ccccc1O
activity change, negative = inhibition [1]: inactive

O=C(O)c1ccc(N/N=C/c2ccc(-c3ccccc3)cc2)cc1
activity change, negative = inhibition [1]: inconclusive: 405%

O=C(Nc1ccc(Cc2ccncc2)cc1)C1CCC(N2C(=O)C3C4C=CC(C5CC45)C3C2=O)CC1 (stereo not drawn)
activity change, negative = inhibition [1]: inconclusive: -7.73%

O=C(CC1N=C2c3ccccc3N=C(SCc3cccc(F)c3)N2C1=O)NCc1ccc2c(c1)OCO2 (stereo not drawn)
activity change, negative = inhibition [1]: inactive

OCCOCCN1CCN(C(c2ccccc2)c2ccc(Cl)cc2)CC1 (stereo not drawn)
activity change, negative = inhibition [1]: inactive

Cc1cc(O)ccc1N/C=C(\C#N)c1nc2ccccc2o1
Potency [1]: inconclusive: 0.461 µM [rising, full curve, poor fit]

O=C(O)c1ccc(NC(=O)c2cn(-c3ccccc3)nc2-c2ccc(Br)cc2)cc1
Potency [1]: inconclusive: 17.8 µM [falling, single point]

CCN(Cc1ccccc1)C(c1cccs1)c1nnnn1C1CCCCC1 (stereo not drawn)
activity change, negative = inhibition [1]: inconclusive: -2.51%

O=C(CCCCn1c(=O)c2ccccc2n(CC(=O)Nc2ccc(F)cc2)c1=O)NCc1ccco1
Potency [1]: inconclusive: 23.1 µM [falling, partial curve]

Cc1c(-c2nc(N)nc(Nc3ccccc3F)n2)oc2ccccc12
Potency [1]: inconclusive: 6.51 µM [falling, partial curve, poor fit]

C[C@]12CCC(=O)C[C@@H]1CC[C@@H]1[C@@H]2CC[C@]2(C)C=CC[C@@H]12
activity change, negative = inhibition [1]: inactive

O=C(c1cc2cc(Cl)ccc2[nH]1)N1CCc2ccccc2C1
activity change, negative = inhibition [1]: inconclusive: 9.2%

CC(C)[C@@H](C(=O)NCc1ccco1)N1C(=O)N2CCc3c([nH]c4ccccc34)[C@@]2(C)C1=O
activity change, negative = inhibition [1]: inactive

Cc1ccc(NC(=O)CCNS(=O)(=O)c2cc(Br)cnc2N)cc1Cl
activity change, negative = inhibition [1]: inactive

N/C(=N\OC(=O)COc1ccccc1Cl)c1ccccn1
activity change, negative = inhibition [1]: inconclusive: -8.54%

CC(=O)c1ccc(C(=O)N2CCc3c([nH]c4ccccc34)C2c2cccc(C)n2)s1 (stereo not drawn)
Potency [1]: inconclusive: 0.251 µM [falling, full curve, poor fit]

CC(=O)Nc1ccc(Nc2cc(C)nc(Nc3ccc(NC(C)=O)cc3)n2)cc1
Potency [1]: inconclusive: 18.4 µM [falling, single point]

CCOC(=O)c1cc(=O)[nH]c2ccccc12
activity change, negative = inhibition [1]: inactive

COc1ccc(C2Nc3ccccc3C(=O)N2Cc2ccco2)cc1COc1ccccc1F (stereo not drawn)
activity change, negative = inhibition [1]: inconclusive: 21.4%

Cc1ccc(N2C(=O)[C@@H]3[C@H](C2=O)[C@H]2C=CC=NN2[C@@H]3C(=O)Nc2ccc(Cl)cc2)cc1
activity change, negative = inhibition [1]: inconclusive: -1.17%

Cc1occc1C(=O)N1CCN(Cc2ccccc2)CC1
Potency [1]: inconclusive: 29.1 µM [falling, single point]

COc1ccc(/C(C)=N/Nc2nc(C)c(C(C)=O)s2)cc1
activity change, negative = inhibition [1]: inactive

CCOc1ccc(N2CC(C(=O)OCC(=O)c3ccc(OC)cc3)CC2=O)cc1 (stereo not drawn)
activity change, negative = inhibition [1]: inconclusive: 2.5%

COc1ccc([N+](=O)[O-])cc1NC(=O)/C=C/C(=O)O
activity change, negative = inhibition [1]: inconclusive: -3.51%

CCn1c(SCC(=O)Nc2ccc3c(c2)OCCO3)nc2c(c1=O)SC(C)C2 (stereo not drawn)
Potency [1]: inconclusive: 2 µM [falling, full curve]

COC(=O)c1ccc(N2CCN(CC(=O)c3ccc(-c4ccccc4)cc3)CC2)c([N+](=O)[O-])c1
activity change, negative = inhibition [1]: inactive

O=C(NCc1cccs1)c1cccc(Nc2nc3ccc(Br)cc3[nH]2)c1
Potency [1]: inconclusive: 29.1 µM [falling, single point]

CSc1nncn1/N=C/c1ccc2c(c1)OCO2
Potency [1]: inconclusive: 14.1 µM [falling, single point]

CCOC(=O)c1c(O)c(O)c(C(=O)OCC)n1-c1ccccc1
Potency [1]: inconclusive: 11.2 µM [falling, partial curve, poor fit]

Cc1ccccc1-n1nc(C)c2cc(C(=O)NC3CC3)sc21
Potency [1]: inconclusive: 29.1 µM [falling, single point]

Cc1cc(=O)[nH]c2nnc(-c3ccc(Cl)cc3)n12
Potency [1]: inconclusive: 3.55 µM [rising, full curve, poor fit]

COc1ccc(C(=S)N2CCN(c3cccc(Cl)c3)CC2)cc1
activity change, negative = inhibition [1]: inconclusive: 4.85%
activity change, negative = inhibition (at 46.1 µM (top of the series)): inactive: 14.5%

O=C(CSCc1ccccc1)Nc1ccc(Cl)cn1
activity change, negative = inhibition [1]: inconclusive: 19.1%

COC(=O)c1cc(NC(=O)c2sc3ncn(Cc4cccc(F)c4)c(=O)c3c2C)cc(C(=O)OC)c1
activity change, negative = inhibition [1]: inconclusive: 6.94%

COCCN(Cc1cn(C)nc1-c1ccccc1F)C(C)C
Potency [1]: inconclusive: 5.01 µM [falling, single point]

COc1ccc(OC)c(S(=O)(=O)N2CCC(C(=O)N(C)Cc3ccccc3)CC2)c1
activity change, negative = inhibition [1]: inactive

CCn1c(SCC(=O)Nc2oc(-c3ccccc3)c(-c3ccccc3)c2C#N)nnc1-c1ccncc1
activity change, negative = inhibition [1]: inconclusive: 12.1%

COc1ccc2cc(C#N)c(SCC(=O)Nc3nonc3C)nc2c1
activity change, negative = inhibition [1]: inactive

COc1ccc(NC(=O)CSc2nc3[nH]ncc3c(=O)n2-c2ccccc2C)cc1OC
activity change, negative = inhibition [1]: inconclusive: -13.5%

Cc1cc(C)n(C(=O)CNC(=O)C2COc3ccccc3O2)n1 (stereo not drawn)
activity change, negative = inhibition [1]: inconclusive: -6.11%

Cc1cc(C)cc(NC(=O)N2CCc3ccccc3C2)c1
Potency [1]: inconclusive: 3.98 µM [falling, full curve]

OCCN1CCN(c2ncnc3c2c(-c2ccccc2)cn3-c2ccc(F)cc2)CC1
Potency [1]: inconclusive: 35.5 µM [falling, single point]

Cc1ccc(-n2cc(CN3CCNC(=O)CC3)c(-c3ccc(F)cc3)n2)cc1
activity change, negative = inhibition [1]: inactive

O=C(CCc1ccccc1)Nc1nnc(-c2ccc3c(c2)OCCO3)o1
activity change, negative = inhibition [1]: inactive

CCCCc1ccc(NC(=O)N2CCNC(=O)C2CC(=O)Nc2ccsc2C(=O)OC)cc1 (stereo not drawn)
Potency [1]: inconclusive: 12.6 µM [falling, partial curve, poor fit]

CCn1c(CCNC(=O)c2ccc(C)cc2)nnc1SCc1ccc(Cl)c(Cl)c1
activity change, negative = inhibition [1]: inactive

CC(=O)c1ccc2c(c1)Cc1cc(C(C)=O)ccc1-2
activity change, negative = inhibition [1]: inconclusive: 10.1%

O=C(Nc1ccccc1)c1nc2ccccc2s1
Potency [1]: inconclusive: 18.4 µM [falling, partial curve]

Cn1sc(NC(=O)c2ccccc2)nc1=O
activity change, negative = inhibition [1]: inconclusive: -29.3%

CN(C(=O)CSc1nnc(-c2n[nH]c3ccccc23)o1)c1ccccc1
activity change, negative = inhibition [1]: inconclusive: -13.2%

COc1cccc(CN(C(=O)c2cc3ccccc3oc2=O)C2CCS(=O)(=O)C2)c1 (stereo not drawn)
activity change, negative = inhibition [1]: inconclusive: 5.62%

C/C=C(/C)C(=O)O[C@@H]1c2c(ccc3ccc(=O)oc23)OC(C)(C)[C@@H]1OC(=O)/C(C)=C\C
activity change, negative = inhibition [1]: inconclusive: -0.448%

CCn1c(O)c(N=NC(=O)CNC(=O)c2ccco2)c2ccccc21
Potency [1]: inconclusive: 20.6 µM [falling, single point]

Cc1cc(C)c(OCCn2ccnc2)c(C)c1
activity change, negative = inhibition [1]: inconclusive: 3.07%

COc1ccc(/C=N/n2c(SC)nnc(C(C)(C)C)c2=O)cc1OC
activity change, negative = inhibition [1]: inconclusive: -2.03%

Cc1nn(C)cc1/C=N/NC(=S)Nc1ccc(Cl)cc1Cl
activity change, negative = inhibition [1]: inconclusive: 8.5%

Cc1ccc(C2CC(c3ccccc3)=NN2C(=S)Nc2ccccc2)o1 (stereo not drawn)
Potency [1]: inconclusive: 2.31 µM [falling, partial curve]

CCOC(=O)CSc1nc2c(sc(=S)n2-c2ccccc2OC)c(=O)n1-c1ccccc1OC
activity change, negative = inhibition [1]: inconclusive: -0.171%
